In patent US20260266848A1, “COMPOSITIONS AND METHODS FOR DIAGNOSING AND TREATING DYSTONIA” (Duke University, priority 2023, published 2026):
Where no unit stands, none is given here, and values compare only within one read-out.

Tested on: DYT1 patient plasma
Assay: Whole plasma metabolomics (Biocrates MxP Quant 500 Kit), DYT1 vs Healthy Controls
Settings: for Mean of DYT1-Dystonia: DYT1-Dystonia group; for Mean of Healthy Control: Healthy Control group
[1] = Mean of Healthy Control minus Mean of DYT1-Dystonia
[2] = human whole plasma metabolite level

Structure (SMILES) | Difference (Healthy Control mean minus DYT1-Dystonia mean) | Mean of DYT1-Dystonia (human plasma metabolite level) | Mean of Healthy Control (human plasma metabolite level) | Difference [1] | Mean of DYT1-Dystonia [2] | Mean of Healthy Control [2]
CCCCCCCCCCCCC/C=C/[C@@H](O)[C@H](CO)NC(=O)CCCCCCCCCCCCCCCCCCC [Cer(d18:1/20:0)_Ceramides] | 0.004778 | 0.206 | 0.2108 | – | – | –
NCCCC[C@H](N)C(=O)O [Lys_Aminoacids] | – | – | – | 22.53 | 279.8 | 302.3
NC(=O)C[C@H](N)C(=O)O [Asn_Aminoacids] | – | – | – | 6.784 | 78.14 | 84.92
CN=C(NC)NCCC[C@H](N)C(=O)O [SDMA_Aminoacids Related] | – | – | – | 0.05593 | 0.6239 | 0.6799
